Earlier results, collected in patent US7728038B2, “Methods for chelation therapy” (priority 2004, dated 2010).
At least one compound was matched to its structure with a doubt left.

Key:
[1] = cited from earlier work
[2] = cited from earlier work; remark: listed apart in the source
[3] = cited from earlier work; remark: listed apart in the source
[4] = cited from earlier work; remark: listed apart in the source

| Structure (SMILES) | affinity for iron (logβ) [1] | chelation of Al (logβ) [2] | chelation of Cu (logβ) [3] | chelation of Zn (logβ) [4] | binding affinity for Cu [3] |
| --- | --- | --- | --- | --- | --- |
| O=C(O)CN(CCN(CC(=O)O)Cc1ccccc1O)Cc1ccccc1O [HBED, N,N′-bis(2-hydroxybenzyl)ethylenediamine-N,N′-diacetic acid] | 40 | 25 | 21 | 18 |  |
| CCCCCCCCCCCCCCCCCCCCCCN(CCN(CCN(CCN(CC(=O)O)CC(=O)O)CC(=O)O)CC(=O)O)CC(=O)O [GL22, 1-N-Docosyltriethylenetetraminepentaacetic acid] |  |  |  |  | 10^17 |
